Results deposited as PubChem BioAssay AID1053208 (Peter MacCallum Cancer Centre, 2014).
Assay: 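Find knock-downs that sensitise mouse osteosarcoma cells to doxorubicin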 (primary screen). System: mouse osteosarcoma cells, early-passage culture from an engineered mouse model of fibroblastic bone tumour. Reagent: siRNA pool against mouse genes, 40 nM. Time to read-out: about 120 h (48 h before drug, then 72 h with drug). Challenge: doxorubicin 100 nM for 72 h, roughly 30-40% inhibitory dose. Detection: 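Viability read as ATP luminescence after 72 h of 100 nM doxorubicin or none, duplicate wells averaged, scaled to non-targeting siRNA, then expressed as robust z-scores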. Scale: viability z-score with doxorubicin and doxorubicin viability vs non-targeting: higher = more viable cells under doxorubicin; viability z-score without drug: higher = more viable cells with knock-down alone; z-score of drug to no-drug ratio: higher = less drug sensitisation by knock-down. Active means: 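a pool counts as active when its viability z-score with doxorubicin is -2 or below and its z-score without drug lies between -2 and 2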.
This is a random part of about 17,000 reagents. Of all reagents, 788 (4.7%) are marked active. 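Calls rest on z-score classes alone; an extra cut-off of viability at most 70% of control was not applied to them.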 Some reagents were tested in more than one well and are listed for each. Reagent sequences are not shown.

gene	PubChem SID	combined z-score class	viability z-score with doxorubicin	viability z-score without drug	z-score of drug to no-drug ratio	doxorubicin viability vs non-targeting	Call
Stxbp3 (syntaxin binding protein 3)	SID152340407	high cell count with doxorubicin only	2.36	0.84	1.91	1.15	inactive
Apoa4 (apolipoprotein A-IV)	SID152335226	no change with or without drug	0.22	1.18	-0.45	0.96	inactive
Rab3b (RAB3B, member RAS oncogene family)	SID152299815	no change with or without drug	-1.12	1.01	-1.69	0.84	inactive
Sprr2j-ps (small proline-rich protein 2J, pseudogene)	SID152277517	low cell count without drug only	0.9	-2.7	3.48	1.02	inactive
Ptpn14 (protein tyrosine phosphatase, non-receptor type 14)	SID152283301	no change with or without drug	0.34	0.51	0.11	0.97	inactive
Rhox5 (reproductive homeobox 5)	SID152314513	low cell count with and without drug	-2.7	-2.02	-1.57	0.7	inactive
Fut7 (fucosyltransferase 7)	SID152327086	no change with or without drug	0.22	1.18	-0.45	0.96	inactive
Poln (DNA polymerase N)	SID152319729	no change with or without drug	-1.46	-0.17	-1.35	0.81	inactive
Huwe1 (HECT, UBA and WWE domain containing 1)	SID152312465	no change with or without drug	1.8	1.18	1.12	1.1	inactive
Rilpl2 (Rab interacting lysosomal protein-like 2)	SID152317908	no change with or without drug	0.11	-0.17	0.34	0.95	inactive
Icam4 (intercellular adhesion molecule 4)	SID152260288	no change with or without drug	-1.91	-1.69	-0.79	0.77	inactive

Continued; the last 3 above are carried over.
gene	PubChem SID	combined z-score class	viability z-score with doxorubicin	viability z-score without drug	z-score of drug to no-drug ratio	doxorubicin viability vs non-targeting	Call
Huwe1 (HECT, UBA and WWE domain containing 1)	SID152312465	no change with or without drug	1.8	1.18	1.12	1.1	inactive
Rilpl2 (Rab interacting lysosomal protein-like 2)	SID152317908	no change with or without drug	0.11	-0.17	0.34	0.95	inactive
Icam4 (intercellular adhesion molecule 4)	SID152260288	no change with or without drug	-1.91	-1.69	-0.79	0.77	inactive
Psmd5 (proteasome (prosome, macropain) 26S subunit, non-ATPase, 5)	SID152280757	no change with or without drug	0.9	0.17	0.9	1.02	inactive
Tfcp2 (transcription factor CP2)	SID152295476	no change with or without drug	1.35	1.52	0.45	1.06	inactive
Ces1e (carboxylesterase 1E)	SID152290385	no change with or without drug	-1.12	0.17	-1.12	0.84	inactive
Tmem234 (transmembrane protein 234)	SID152272378	no change with or without drug	-0.56	0.17	-0.56	0.89	inactive
Cpt1b (carnitine palmitoyltransferase 1b, muscle)	SID152277286	no change with or without drug	0.9	0.34	0.79	1.02	inactive
Or10q1b (olfactory receptor family 10 subfamily Q member 1B)	SID152300965	no change with or without drug	0.34	-0.51	0.79	0.97	inactive
Matn2 (matrilin 2)	SID152301142	no change with or without drug	-0.45	0.17	-0.45	0.9	inactive
Tnk1 (tyrosine kinase, non-receptor, 1)	SID152291562	no change with or without drug	1.69	0.51	1.46	1.09	inactive
Pomk (protein-O-mannose kinase)	SID152262953	no change with or without drug	0.22	-1.52	1.57	0.96	inactive
Pomk (protein-O-mannose kinase)	SID152262953	high cell count without drug only	0.45	3.37	-1.46	0.98	inactive
